PubChem BioAssay AID1259405 – NCATS – 2018
Aim: 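Knock-downs that lift recombinant protein yield in hamster ovary cells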 (primary screen). Cells: Chinese hamster CHO-K1 ovary cells with stable secreted eGFP expression. Reagent: single siRNA against mouse genes, 0.8 pmol siRNA per well (2 µl of 400 nM stock). Duration: 3 days. Measurement: 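Percent of the per-plate non-targeting control median for intracellular GFP per well by laser scanning cytometry and for cell viability by ATP luminescence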. Scale: GFP, % of control: higher = more GFP per well, higher productivity. Active means: 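Called active when intracellular GFP, relative to negative control, is at or above 120%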.
This is a random part of about 50,000 reagents tested. About 4,000 of them (8%) were called active. 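Mouse siRNA library applied to hamster cells; one well for each siRNA.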 The numbers tell different reagents against one gene apart. Not all columns of the deposit are shown.

GFP, % of control, by gene and reagent
Aph1a: #1 62.7 inactive; #2 51.6 inactive
Rev3l: #1 36 inactive; #2 105 inactive; #3 51.7 inactive
1700092C17Rik: #1 104 inactive; #2 49.2 inactive; #3 72.2 inactive
Nus1: #1 118 inactive; #2 87 inactive; #3 151 active
Sycn: #1 55 inactive; #2 101 inactive; #3 121 active
Gtpbp10: #1 52.7 inactive; #2 37.2 inactive; #3 88.5 inactive
Atrnl1: #1 66.5 inactive; #2 1.47 inactive
Cul1: #1 81.6 inactive; #2 51.4 inactive; #3 102 inactive
Osbpl10: #1 66.3 inactive; #2 83.7 inactive; #3 123 active
Sh3bp2: #1 58.7 inactive; #2 103 inactive; #3 86.8 inactive
Rhob: #1 62.2 inactive; #2 73.3 inactive; #3 69 inactive
Tymp: #1 109 inactive; #2 11 inactive; #3 96.6 inactive

Active calls, of those listed so far:
GFP, % of control, by gene and reagent
Nus1: #3 151 active
Sycn: #3 121 active
Osbpl10: #3 123 active
